In the data set the test system is BAF complex subunits and histone proteins. The experiment in a line: Mass spectrometry proteomics of purified HA-SS18 WT and HA-SS18-SSX1 complexes (Tables 5A-5E). As to conditions: for Total / Unique: HA-SS18SSX1_CHR_peptides; for Total: total peptides of the identified protein; for Unique: unique peptides of the identified protein; for Total (total peptides) / Unique (unique peptides): HA-SS18WT_CHR_peptides: protein identified in HA-SS18 WT BAF complex purification from nuclease-treated solubilized chromatin (CHR); for Total (total peptides) / Unique (unique peptides) / Total (peptides) / Unique (peptides): HEK-293T; for Total (peptides) / Unique (peptides): HA-SS18WT_NE_peptides: proteins co-purified with HA-SS18 WT from nuclear extract (NE). The arrangement: species or system human.

From patent publication US20250283871A1, “COMPOSITIONS AND METHODS FOR MODULATING THE INTERACTION BETWEEN SS18-SSX FUSION ONCOPROTEIN AND NUCLEOSOMES” (Dana-Farber Cancer Institute, Inc., priority 2020, published 2025) come the findings set out here.

B1: UTP11 (protein, UniProt Q9Y3A2 1-253, looked up)
Probable U3 small nucleolar …: MAAAFRKAAKSRQREHRERSQPGFRKHLGLLEKKKDYKLRADDYRKKQEYLKALRKKALEKNPDEFYYKMTRVKLQDGVHIIKETKEEVTPEQLKLMRTQDVKYIEMKRVAEAKKIERLKSELHLLDFQGKQQNKHVFFFDTKKEVEQFDVATHLQTAPELVDRVFNRPRIETLQKEKVKGVTNQTGLKRIAKERQKQYNCLTQRIEREKKLFVIAQKIQTRKDLMDKTQKVKVKKETVNSPAIYKFQSRRKR
In the case of B1, the Total was found to be 2, the Unique was 2, the “Total (total peptides)” value was found to be 1 and the “Unique (unique peptides)” value stood at 1.

B2: PHF2 (protein, UniProt O75151 1-1096, looked up)
Lysine-specific demethylase …: MATVPVYCVCRLPYDVTRFMIECDACKDWFHGSCVGVEEEEAPDIDIYHCPNCEKTHGKSTLKKKRTWHKHGPGQAPDVKPVQNGSQLFIKELRSRTFPSAEDVVARVPGSQLTLGYMEEHGFTEPILVPKKDGLGLAVPAPTFYVSDVENYVGPERSVDVTDVTKQKDCKMKLKEFVDYYYSTNRKRVLNVTNLEFSDTRMSSFVEPPDIVKKLSWVENYWPDDALLAKPKVTKYCLICVKDSYTDFHIDSGGASAWYHVLKGEKTFYLIRPASANISLYERWRSASNHSEMFFADQVDKCYKCIVKQGQTLFIPSGWIYATLTPVDCLAFAGHFLHSLSVEMQMRAYEVERRLKLGSLTQFPNFETACWYMGKHLLEAFKGSHKSGKQLPPHLVQGAKILNGAFRSWTKKQALAEHEDELPEHFKPSQLIKDLAKEIRLSENASKAVRPEVNTVASSDEVCDGDREKEEPPSPIEATPPQSLLEKVSKKKTPKTVKMPKPSKIPKPPKPPKPPRPPKTLKLKDGGKKKGKKSRESASPTIPNLDLLEAHTKEALTKMEPPKKGKATKSVLSVPNKDVVHMQNDVERLEIREQTKSKSEAKWKYKNSKPDSLLKMEEEQKLEKSPLAGNKDNKFSFSFSNKKLLGSKALRPPTSPGVFGALQNFKEDKPKPVRDEYEYVSDDGELKIDEFPIRRKKNAPKRDLSFLLDKKAVLPTPVTKPKLDSAAYKSDDSSDEGSLHIDTDTKPGRNARVKKESGSSAAGILDLLQASEEVGALEYNPSSQPPASPSTQEAIQGMLSMANLQASDSCLQTTWGAGQAKGSSLAAHGARKNGGGSGKSAGKRLLKRAAKNSVDLDDYEEEQDHLDACFKDSDYVYPSLESDEDNPIFKSRSKKRKGSDDAPYSPTARVGPSVPRQDRPVREGTRVASIETGLAAAAAKLSQQEEQKSKKKKSAKRKLTPNTTSPSTSTSISAGTTSTSTTPASTTPASTTPASTSTASSQASQEGSSPEPPPESHSSSLADHEYTAAGTFTGAQAGRTSQPMAPGVFLTQRRPSASSPNNNTAAKGKRTKKGMATAKQRLGKILKIHRNGKLLL
Consider B2, for which the Total amounted to 2, the Unique is recorded as 2, the “Total (total peptides)” value was found to be 2 and the “Unique (unique peptides)” value came to 1.

B3: CWC22 (protein, UniProt Q9HCG8 1-908, looked up)
Pre-mRNA-splicing factor …: MKSSVAQIKPSSGHDRRENLNSYQRNSSPEDRYEEQERSPRDRDYFDYSRSDYEHSRRGRSYDSSMESRNRDREKRRERERDTDRKRSRKSPSPGRRNPETSVTQSSSAQDEPATKKKKDELDPLLTRTGGAYIPPAKLRMMQEQITDKNSLAYQRMSWEALKKSINGLINKVNISNISIIIQELLQENIVRGRGLLSRSVLQAQSASPIFTHVYAALVAIINSKFPQIGELILKRLILNFRKGYRRNDKQLCLTASKFVAHLINQNVAHEVLCLEMLTLLLERPTDDSVEVAIGFLKECGLKLTQVSPRGINAIFERLRNILHESEIDKRVQYMIEVMFAVRKDGFKDHPIILEGLDLVEEDDQFTHMLPLEDDYNPEDVLNVFKMDPNFMENEEKYKAIKKEILDEGDTDSNTDQDAGSSEEDEEEEEEEGEEDEEGQKVTIHDKTEINLVSFRRTIYLAIQSSLDFEECAHKLLKMEFPESQTKELCNMILDCCAQQRTYEKFFGLLAGRFCMLKKEYMESFEGIFKEQYDTIHRLETNKLRNVAKMFAHLLYTDSLPWSVLECIKLSEETTTSSSRIFVKIFFQELCEYMGLPKLNARLKDETLQPFFEGLLPRDNPRNTRFAINFFTSIGLGGLTDELREHLKNTPKVIVAQKPDVEQNKSSPSSSSSASSSSESDSSDSDSDSSDSSSESSSEESDSSSISSHSSASANDVRKKGHGKTRSKEVDKLIRNQQTNDRKQKERRQEHGHQETRTERERRSEKHRDQNSSGSNWRDPITKYTSDKDVPSERNNYSRVANDRDQEMHIDLENKHGDPKKKRGERRNSFSENEKHTHRIKDSENFRRKDRSKSKEMNRKHSGSRSDEDRYQNGAERRWEKSSRYSEQSRESKKNQDRRREKSPAKQK
Molecule B3 came in with a Total of 2 and a Unique of 2.

B4: NEFL (protein, UniProt P07196 2-543, looked up)
Neurofilament light …: SSFSYEPYYSTSYKRRYVETPRVHISSVRSGYSTARSAYSSYSAPVSSSLSVRRSYSSSSGSLMPSLENLDLSQVAAISNDLKSIRTQEKAQLQDLNDRFASFIERVHELEQQNKVLEAELLVLRQKHSEPSRFRALYEQEIRDLRLAAEDATNEKQALQGEREGLEETLRNLQARYEEEVLSREDAEGRLMEARKGADEAALARAELEKRIDSLMDEISFLKKVHEEEIAELQAQIQYAQISVEMDVTKPDLSAALKDIRAQYEKLAAKNMQNAEEWFKSRFTVLTESAAKNTDAVRAAKDEVSESRRLLKAKTLEIEACRGMNEALEKQLQELEDKQNADISAMQDTINKLENELRTTKSEMARYLKEYQDLLNVKMALDIEIAAYRKLLEGEETRLSFTSVGSITSGYSQSSQVFGRSAYGGLQTSSYLMSTRSFPSYYTSHVQEEQIEVEETIEAAKAEEAKDEPPSEGEAEEEEKDKEEAEEEEAAEEEEAAKEESEEAKEEEEGGEGEEGEETKEAEEEEKKVEGAGEEQAAKKKD
Molecule B4 gave a Total of 2 and a Unique of 2.

B5: CDCA2 (protein, UniProt Q69YH5 1-1023, looked up)
Cell division …: MDANSKDKPPETKESAMNNAGNASFILGTGKIVTPQKHAELPPNPCTPDTFKSPLNFSTVTVEQLGITPESFVRNSAGKSSSYLKKCRRRSAVGARGSPETNHLIRFIARQQNIKNARKSPLAQDSPSQGSPALYRNVNTLRERISAFQSAFHSIKENEKMTGCLEFSEAGKESEMTDLTRKEGLSACQQSGFPAVLSSKRRRISYQRDSDENLTDAEGKVIGLQIFNIDTDRACAVETSVDLSEISSKLGSTQSGFLVEESLPLSELTETSNALKVADCVVGKGSSDAVSPDTFTAEVSSDAVPDVRSPATPACRRDLPTPKTFVLRSVLKKPSVKMCLESLQEHCNNLYDDDGTHPSLISNLPNCCKEKEAEDEENFEAPAFLNMRKRKRVTFGEDLSPEVFDESLPANTPLRKGGTPVCKKDFSGLSSLLLEQSPVPEPLPQPDFDDKGENLENIEPLQVSFAVLSSPNKSSISETLSGTDTFSSSNNHEKISSPKVGRITRTSNRRNQLVSVVEESVCNLLNTEVQPCKEKKINRRKSQETKCTKRALPKKSQVLKSCRKKKGKGKKSVQKSLYGERDIASKKPLLSPIPELPEVPEMTPSIPSIRRLGSGYFSSNGKLEEVKTPKNPVKRKDLLRHDPDLHMHQGYDKYDVSEFCSYIKSSSSLGNATSDEDPNTNIMNINENKNIPKAKNKSESENEPKAGTDSPVSCASVTEERVASDSPKPALTLQQGQEFSAGGQNAENLCQFFKISPDLNIKCERKDDFLGAAEGKLQCNRLMPNSQKDCHCLGDVLIENTKESKSQSEDLGRKPMESSSVVSCRDRKDRRRSMCYSDGRSLHLEKNGNHTPSSSVGSSVEISLENSELFKDLSDAIEQTFQRRNSETKVRRSTRLQKDLENEGLVWISLPLPSTSQKAKRRTICTFDSSGFESMSPIKETVSSRQKPQMAPPVSDPENSQGPAAGSSDEPGKRRKSFCISTLANTKATSQFKGYRRRSSLNGKGESSLTALERIEHNGERKQ
As for B5, the Total came out at 2, the Unique came out at 2, the “Total (total peptides)” value came out at 1 and the “Unique (unique peptides)” value was 1.

B6: FUS (protein, UniProt P35637 1-526, looked up)
RNA-binding protein FUS: MASNDYTQQATQSYGAYPTQPGQGYSQQSSQPYGQQSYSGYSQSTDTSGYGQSSYSSYGQSQNTGYGTQSTPQGYGSTGGYGSSQSSQSSYGQQSSYPGYGQQPAPSSTSGSYGSSSQSSSYGQPQSGSYSQQPSYGGQQQSYGQQQSYNPPQGYGQQNQYNSSSGGGGGGGGGGNYGQDQSSMSSGGGSGGGYGNQDQSGGGGSGGYGQQDRGGRGRGGSGGGGGGGGGGYNRSSGGYEPRGRGGGRGGRGGMGGSDRGGFNKFGGPRDQGSRHDSEQDNSDNNTIFVQGLGENVTIESVADYFKQIGIIKTNKKTGQPMINLYTDRETGKLKGEATVSFDDPPSAKAAIDWFDGKEFSGNPIKVSFATRRADFNRGGGNGRGGRGRGGPMGRGGYGGGGSGGGGRGGFPSGGGGGGGQQRAGDWKCPNPTCENMNFSWRNECNQCKAPKPDGPGGGPGGSHMGGNYGDDRRGGRGGYDRGGYRGRGGDRGGFRGGRGGGDRGGFGPGKMDSRGEHRQDRRERPY
For the molecule B6, the Total came out at 2, the Unique was found to be 2, the “Total (peptides)” value is recorded as 1 and the “Unique (peptides)” value was 1.

B7: BRIX1 (protein, UniProt Q8TDN6 1-353, looked up)
Ribosome biogenesis protein …: MAATKRKRRGGFAVQAKKPKRNEIDAEPPAKRHATAEEVEEEERDRIPGPVCKGKWKNKERILIFSSRGINFRTRHLMQDLRMLMPHSKADTKMDRKDKLFVINEVCEMKNCNKCIYFEAKKKQDLYMWLSNSPHGPSAKFLVQNIHTLAELKMTGNCLKGSRPLLSFDPAFDELPHYALLKELLIQIFSTPRYHPKSQPFVDHVFTFTILDNRIWFRNFQIIEEDAALVEIGPRFVLNLIKIFQGSFGGPTLYENPHYQSPNMHRRVIRSITAAKYREKQQVKDVQKLRKKEPKTLLPHDPTADVFVTPAEEKPIEIQWVKPEPKVDLKARKKRIYKRQRKMKQRMDSGKTK
Molecule B7 returned a Total of 2 and a Unique of 2.

B8: PRPH (protein, UniProt P41219 1-470, looked up)
Peripherin: MSHHPSGLRAGFSSTSYRRTFGPPPSLSPGAFSYSSSSRFSSSRLLGSASPSSSVRLGSFRSPRAGAGALLRLPSERLDFSMAEALNQEFLATRSNEKQELQELNDRFANFIEKVRFLEQQNAALRGELSQARGQEPARADQLCQQELRELRRELELLGRERDRVQVERDGLAEDLAALKQRLEEETRKREDAEHNLVLFRKDVDDATLSRLELERKIESLMDEIEFLKKLHEEELRDLQVSVESQQVQQVEVEATVKPELTAALRDIRAQYESIAAKNLQEAEEWYKSKYADLSDAANRNHEALRQAKQEMNESRRQIQSLTCEVDGLRGTNEALLRQLRELEEQFALEAGGYQAGAARLEEELRQLKEEMARHLREYQELLNVKMALDIEIATYRKLLEGEESRISVPVHSFASLNIKTTVPEVEPPQDSHSRKTVLIKTIETRNGEVVTESQKEQRSELDKSSAHSY
For B8, the Total was determined as 2, the Unique came to 2, the “Total (total peptides)” value is 1 and the “Unique (unique peptides)” value is 1. Also, the “Total (peptides)” value is on record as 1 and the “Unique (peptides)” value turned out to be 1.
